Source: US20250388687A1
Where a chain is given by its changes, count along the chain named. These are yes or no findings as the source states them, for the method shown. Some entries that bind do so weakly or less than the wild type. Blank lines part the entries; values can stand above or below the binder they belong to.

The chains behind the UniProt entries cited, without tags or fusion partners. Residues count along the entry.
UniProt P32927, residues 17-443: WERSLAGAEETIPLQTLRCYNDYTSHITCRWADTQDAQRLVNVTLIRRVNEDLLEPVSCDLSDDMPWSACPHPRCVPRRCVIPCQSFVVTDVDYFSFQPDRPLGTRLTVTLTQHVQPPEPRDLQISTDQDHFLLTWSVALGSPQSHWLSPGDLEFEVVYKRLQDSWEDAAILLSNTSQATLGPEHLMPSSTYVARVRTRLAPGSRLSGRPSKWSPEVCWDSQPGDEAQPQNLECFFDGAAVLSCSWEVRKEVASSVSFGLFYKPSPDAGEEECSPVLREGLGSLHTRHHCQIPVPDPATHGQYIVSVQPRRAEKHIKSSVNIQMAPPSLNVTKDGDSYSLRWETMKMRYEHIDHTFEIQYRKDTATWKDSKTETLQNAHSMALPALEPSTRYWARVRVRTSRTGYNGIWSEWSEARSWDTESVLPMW

How the values were obtained:
[1] = target: hCD131-Fc (IME021, in house) (human) (UniProt P32927); experiment: B-cell sort with labelled hEPOR-Fc and hCD131-Fc
[2] = target: hCD131-Fc (IME021, in house) (human) (UniProt P32927); experiment: B-cell sorting with labelled hEPOR-Fc and hCD131-Fc, double-positive population

B1: EPOR/CD131 binder clonotype 249 (antibody, V domains shown)
VH: QVQLVQSGAEVEKPGASVKVSCKASGYTFTSYDIYWVRQATGQGLEWMGWMIPNSGNTGYAQRFEDRVTMTRSTSMNTAYMELNSLRSEDTAVYYCARGDWAWSFDLWGRGTLVTVSS
VL: QSALTQPASVSGSPGQSITISCTGTSSDVGGYNYVSWYQQHPGKAPKLMIYEVSHRPSGVSNRFSGSKSGNTASLTISGLQAEDESDYYCSSYTSSSSLVFGGGTKLTVL
binding [1]: binds

B2: EPOR/CD131 binder clonotype 265 (antibody, V domains shown)
VH: EVQLVESGGGLVKPGGSLRLSCAASGFTFSTYSMNWVRQAPGKGLEWVSSISSSSTYIYYADSVKGRFTISRDNAKNSLYLQMNSLRAEDTAVYYCARGYNWNYVGDYWGQGTLVTVSS
VL: B1 VL with H55N, S86A, S98T
binding [1]: binds

B6: EPOR/CD131 binder clonotype 239 (antibody, V domains shown)
VH: EVQVMESGGGLVKPGGSLRLSCAASGFSFSSHSLNWVRQAPGKGLEWVSSISGISNYIAYADSVRGRFTISRDNAKNSLFLQMNSLRAEDTGVYYCARITVVSFDYWGQGTLVTVTS
VL: QSALTQPASVSGSPGQSITISCTGTNNDVGYYNYVSWYQQHPDKAPKLMIYDVIKRPSGVSDRFSGSKSGNTASLTISGLQAEDEADYYCCSYAGSSTWVFGGGTKLSVL
binding [1]: binds

B10: EPOR/CD131 binder clonotype 275 (antibody, V domains shown)
VH: EVQLVESGGGLVQPGGSLRLSCAASGFTFSGYWMTWVRQAPGKGLEWVANIKHDGSEKYYVDSVKGRFTISRDNAQNSLYLQMNSLRAEDTAVYYCARKQLWLNWYFDFWGRGILVTVSS
VL: SSELTQDPAVSVALGQTVRITCQGDSLRRYYASWYQQKPGQAPVLVIYGKDNRPSGIPDRFSGSSSGNTASLTITGTQAEDEADYYCNSRDSSGNHLVFGGGTKLTVL
binding [1]: binds

B12: EPOR/CD131 binder clonotype 246 (antibody, V domains shown)
VH: EVQLVESGGGLVQPGGSLRLSCAASGFTFSSYSMNWVRQAPGKGLEWVSYISSSSSTIYYADSVKGRFTISRDNAKNSLYLQMNSPRDEDTAVYYCARESIAALFDYWGQGTLVTVSS
VL: B10 VL with R29S, D51N, T77A
binding [1]: binds

B15: EPOR/CD131 binder clonotype 260 (antibody, V domains shown)
VH: EVQLVESGGGVVRPGGSLRLSCAASGFPFDDFGLNWVRQAPGKGLEWVSGINWNGGTTTYADSVKGRFTISRDNAKKSLYLQMSSLRVEDTALFYCVRDEIWNYYFDYWGQGTLVTVSS
VL: SYELTQPSSVSVSPGQTARITCSGDVLAKKYARWFQQKPGQAPVLVIYKDSERPSGIPERFSGSSSGTTVTLTISGAQVEDEADYYCYSAADNNRVFGGGTKLTVL
binding [1]: binds

B17: EPOR/CD131 binder clonotype 272 (antibody, V domains shown)
VH: EVQLVESGGGLVQPGGSLRLSCAASGFTFNRYNMNWVRQAPGKGLEWVSYISSSSDTIYYADSVKGRFTISRDNAKNSLYLQMNSLRDEDTAMYYCARECYSSSWAFDYWGQGTLVTVSS
VL: SSELTQDPAVSVALGQTVRITCQGDSLRSYYASWYQQKPGQAPVLVIYGKNNRPSGILDRFSGSSSGNTASLTITGAQAEDEGDYYCNSRDSSGWVFGGGTKLTVL
binding [1]: binds

B18: EPOR/CD131 binder clonotype 242 (antibody, V domains shown)
VH: EVQLVESGGGLVQPGGSLRLSCAASGFTFSSYWMSWVRQAPGKGLEWVANIKQDGSEKYYVDSVKGRFTISRDNAKNSLYLQMNSLRAEDTAVYYCARDGTGWFDPWGQGTLVTVSS
VL: QSVLTQPPSVSGAPGQRVTISCTGSSSNIGAGYDVHWYQQLPGTAPKLLIYGNSNRPSGVPDRFSGSKSGTSASLAITGLQAEDEADYYCQSYDSSLSGWVFGGGTKLTVL
binding [1]: binds

B20: EPOR/CD131 binder clonotype 274 (antibody, V domains shown)
VH: EVQLVESGGGLVQPGGSLRLSCGVSGFTFSIYWMSWVRQAPGKGLEWVANINLDGSEKYHVDSVKGRFTISRDNAKNSLFLQMTSLRAEDTAVYYCARDILWSGGYLDVWGKGTTVTVSS
VL: SSELTQDPAVSVALGQTVRITCQGDNIRNYYASWYQQKPGQAPLLVISGKNNRPSGIPDRFSGSSSGNTASLTITGAQAEDEAYYYCYSRDSSGSLWIFGGGTKLTVL
binding [1]: binds

B22: EPOR/CD131 binder clonotype 243 (antibody, V domains shown)
VH: QVQLVQSGAEVKKPGASVKVSCKASGYTFTSYGISWVRQAPGQGLEWMGWISAYNGNTNYAQKLQGRVTMTTDTSTSTAYMELRSLRSDDTAVYYCARRGTVVFDYWGQGTLVTVSS
VL: QSALTQPASVSGSPGQSITISCTGTSSDVGGYNYVSWYQQHPGKAPKLMIYDVSKRPSGVSNRFSGSKSGNTASLTISGLQAEDEADYYCCSYAGSSTYVVFGGGTKLTVL
binding [1]: binds

B23: EPOR/CD131 binder clonotype 244 (antibody, V domains shown)
VH: B22 VH with S31N, K63N, R99P, G100L, T101S, V102G, V103T, F104L, Y106N
VL: QSALTQPASVSGSPGQSITISCTGTSSDVGGYNYVSWYQQHPGKAPKLMIYDVSKRPSGVSNRFSGSKSGNTASLTISGLQAEDEADYYCCSYAGRSTLGIDWVFGGGTKLTVR
binding [1]: binds

The remaining lines, values ahead:

binding [1]: binds
B3: EPOR/CD131 binder clonotype 250 (antibody, V domains shown)
VH: QVQLVQSGAEVKKPGASVKVSCKASGYTFTSYYMHWVRQAPGQGLEWMGIINPSGGSTSYAQKFQGRVTMTRDTSTSTVYMELSSLRSEDTAVYYCARGLRRDWFDPWGQGTLVTVSS
VL: B1 VL with H55N, S86A, S98T, L99W

binding [1]: binds
B4: EPOR/CD131 binder clonotype 252 (antibody, V domains shown)
VH: QVQLVESGGGVVQPGRSLRLSCAASGFTFSNYGMHWVRQAPGKGLDWVAVIWYDGNNEYYADSVKDRFTISRDNSQNTLYLQMNSLRAEDRAVYYCVRGGVGDGFDMWGQGTMVTVSS
VL: B1 VL with A45V, H55N, S86A, S91I, S95N, S96T, S97N, S98T, L99R

binding [1]: binds
B5: EPOR/CD131 binder clonotype 255 (antibody, V domains shown)
VH: B12 VH with Q13K, Y50S, T57Y, P86L, D88A, E99D, I101A, A102Y, A103Y, L104T
VL: QSALTQPPSASGSPGQSVTISCTGTSSDVGGYNYVSWYQQHPGKAPKLMIYEVSKRPSGVPDRFSGSKSGNTASLTVSGLQAEDEADYYCSSYAGSNNFWVFGGGTKLTVL

binding [1]: binds
B7: EPOR/CD131 binder clonotype 282 (antibody, V domains shown)
VH: EVQLVESGGGLVKPGGSLRLSCAASGFTFSSYSMNWVRQAPGKGLEWVSSISSSSSYIYYADSVKGRFTISRDNAKNSLYLQMNSLRAEDTAVYYCAREGNWGPYYFDYWGQGTLVTVSS
VL: B6 VL with N26S, N27S, Y31G, D43G, I54S, D62N, W99V, S108T

binding [1]: binds
B8: EPOR/CD131 binder clonotype 235 (antibody, V domains shown)
VH: QVQVVQSGAEVRKSGASVKVSCKASGYTFTSYYIHWVRQVPGQGLEWMGLINPSGGSTIYAQKFQGRVTMTRDTSTSSVYMELSSLRSEDTAAYYCARGGWGTMDVWGKGTTVTVSS
VL: B10 VL with R29S, D51N, T77A, L97Y, G101T, L105V

binding [1]: binds
B9: EPOR/CD131 binder clonotype 236 (antibody, V domains shown)
VH: EVQLVESGGGLVQPGGSLRLSCAASGFTFSSYDMHWVRQATGKGLEWVSAIGTAGDTYYPGSVKGRFTISRENAKNSLYLQMNSLRAGDTAVYYCARAWELDAFDIWGQGTMVTVSS
VL: B10 VL with R29S, D51N, T77A, L97V

binding [1]: binds
B11: EPOR/CD131 binder clonotype 276 (antibody, V domains shown)
VH: QVQLVQSGAEVKKPGASVKVSCKASGYTFTTYGISWVRQAPGQGLEWMGWISAFNGNTNYAQNLQGRVTMTTDTSTSTAYMELRSLRSDDTAVYYCARENNWNYGWFDPWGQGTLVTVSS
VL: B10 VL with R29S, D51N, T77A, L97Y, G101T, L105V

binding [1]: binds
B13: EPOR/CD131 binder clonotype 264 (antibody, V domains shown)
VH: EVQLVESGGGLVQPGGSLRLSCAASGFTFSSYWMHWVRQAPGKGLVWVSRINSDGSSTSYADSVKGRFTISRDNAKNTLYLQMNSLRAEDTAVYYCARVGWGGHAFDIWGQGTMVTVSS
VL: B10 VL with R29S, D51N, T77A, L97V

binding [1]: binds
B14: EPOR/CD131 binder clonotype 241 (antibody, V domains shown)
VH: B8 VH with V4L, R12K, S14P, V40A, L50I, S57T, I59N, S78T, A93V, G100D
VL: QSALTQPASVSGSPGQSITISCTGTSSDVGNYNYVSWYQQHPGKVPKLMIYEVIYRPSGVSNRFSGSKSGNTASLTISGLQAEDEADYYCTSYTRNNTYVFGSGTKVTVL

binding [1]: binds
B16: EPOR/CD131 binder clonotype 247 (antibody, V domains shown)
VH: EVQLVESGGGLVQPGGSLRLSCAASGFTFSSYDMHWVRQATGKGLEWVSAIGTAGDTYYPGSVKGRFTISRENAKNSLYLQMNSLRAGDTAVYYCARGDHSYGGLDYWGQGTLVTVSS
VL: SYELTQPPSVSVSLGQMARITCSGEALPKKYAYWYQQKPGQFPVLVIYKDSERPSGIPERFSGSSSGTIVTLTISGVQAEDEADYYCLSADSSGTYRVFGGGTKLTVL

binding [1]: binds
B19: EPOR/CD131 binder clonotype 273 (antibody, V domains shown)
VH: QVQLQESGPGLVKPSGTLSLTCAISGGSISSSNWWSWVRQPPGKGLEWIGEIYHSGSTNFNPSLKSRVTISVDKSKNQFSLHLSSVTAADTAVYYCARDVGVDGRGFDYWGQGIVVIVSS
VL: SYELTQPPSVSVSPGQTANITCSGDKLENKYTCWYQQKPGQSPLVVIYQDNKRPSGIPERFSGSNSGNTATLTISGTQAMDEADYYCQAWDSTTAWVFGGGTKLTVL

binding [2]: binds
B21: clonotype 289 (EPOR/CD131 binders, Table 8) (antibody, V domains shown)
VH: EVHLVESGGGLVQPGGSLRLSCAASGFTFSGYWMSWVRQAPGKGLEWVANIKQDGSDKYYVDSVKGRFTISRDNAINSLFLQLTSLRAEDTAVYYCAREIDWNYGFHFDYWGQGTLITVSS
VL: SYELTQPPSVSVSPGQTARITCSGDALPQKYAFWYQQKSGQAPVLVIYEDSERPSGIPERFSGSTSGTMATLTISGAQVEDEADYYCFSTDSSGNKVFGGGTKLTVL
